A: 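Assay on Mycobacterium tuberculosis, filed only as a heat shock assay from Cornell; the read-out is not stated. The concentration is filed as 10 mM, unlikely as a test dose, so the dose is not known. Higher reads as stronger inhibition (inferred: compounds with an IC50 in retests scored well above the rest). About 69,000 compounds were tested under these conditions; 1.4% (about 930) showed 50% or more at least once.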
B: 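Whole-cell assay for inhibitors of Mycobacterium tuberculosis growth, labelled Cornell in the record; the read-out is not stated. The concentration is filed as 10 mM, unlikely as a test dose, so the dose is not known. The record gives no direction; compounds strong in two other growth screens of this library score well above the rest, so higher reads as stronger inhibition. About 53,000 compounds were tested under these conditions; 1.7% (about 900) showed 50% or more at least once.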
C: 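Primary screen of methionyl-tRNA synthetase; the read-out is not stated. Target: Methionyl-tRNA synthetase (putative), Leishmania donovani (UniProt E9BF75). The test concentration is not given. The values are filed as inhibition. About 68,000 compounds were tested under these conditions; 0.035% (about 24) showed 50% or more at least once.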

By UniProt entry, the sequences of proteins in these tests, tags left out.
UniProt E9BF75, entry or part of it: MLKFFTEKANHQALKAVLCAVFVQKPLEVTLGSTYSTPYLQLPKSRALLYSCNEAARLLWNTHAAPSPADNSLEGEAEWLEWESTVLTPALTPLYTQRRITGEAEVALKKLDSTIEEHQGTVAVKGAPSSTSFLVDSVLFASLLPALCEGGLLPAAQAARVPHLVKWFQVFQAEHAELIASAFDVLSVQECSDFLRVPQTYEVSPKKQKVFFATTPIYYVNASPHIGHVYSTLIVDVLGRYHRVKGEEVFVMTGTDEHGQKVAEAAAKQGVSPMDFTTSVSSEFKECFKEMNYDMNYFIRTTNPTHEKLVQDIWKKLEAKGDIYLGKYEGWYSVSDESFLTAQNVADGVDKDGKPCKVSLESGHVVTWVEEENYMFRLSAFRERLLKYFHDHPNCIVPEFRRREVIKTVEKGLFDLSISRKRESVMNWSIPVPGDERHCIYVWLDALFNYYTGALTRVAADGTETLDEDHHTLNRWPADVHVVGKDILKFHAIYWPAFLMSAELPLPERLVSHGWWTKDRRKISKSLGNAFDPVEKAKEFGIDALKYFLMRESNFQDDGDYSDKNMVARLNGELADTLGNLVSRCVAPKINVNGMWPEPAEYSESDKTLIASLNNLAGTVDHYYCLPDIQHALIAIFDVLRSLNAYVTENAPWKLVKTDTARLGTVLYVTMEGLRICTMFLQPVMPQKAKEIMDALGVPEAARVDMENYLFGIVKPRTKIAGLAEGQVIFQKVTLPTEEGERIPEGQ

Results are percentages, as filed.
The record does not define 0% and 100%; most values in the screen are far below 50% and negative numbers occur (in some assays of this library far below -100).
The compounds are a random part of those screened.

{"structure": "O=C(Cc1ccccc1C(F)(F)F)N1CCC2(CC1)OCCCC2O", "stereo": "stereo unspecified", "A": 1.969, "B": -66.42, "C": 8.065}
{"structure": "O=C(NCC(F)(F)F)C1CSCN1S(=O)(=O)c1ccccc1F", "stereo": "stereo unspecified", "A": -11.92, "B": -41.93, "C": 11.75}
{"structure": "CCN1CCO[C@]2(CCC[C@H]2COCc2csc(C)n2)C1.O=C(O)C(F)(F)F.O=C(O)C(F)(F)F", "A": 13.05, "B": 6.08}
{"structure": "Cn1ncc2c(NCCC34CCCN3CCC4)nc(C3CCCC3)nc21", "A": 90.62, "B": 10.87, "C": 15.27}
{"structure": "O=S1(=O)NCC2(CCCN(Cc3ccccn3)C2)Oc2ncccc21", "stereo": "stereo unspecified", "A": -18.75, "C": 0.5714}
{"structure": "Cc1c(CN2CCc3[nH]cnc3C2C(=O)O)[nH]c2ccc(F)cc12", "stereo": "stereo unspecified", "A": 1.605, "C": 20.21}
{"structure": "COc1cccc(CN2C[C@@H]3COC[C@]3(CNC(=O)C3CC3)C2)c1", "C": 13.49}
{"structure": "Cc1cc(C(=O)N2C[C@@H]3[C@@H](C2)OCC(=O)N3CC2CC2)no1", "C": -32.28}
{"structure": "O=C(COc1coc(CN2CCCC2)cc1=O)NCc1ccccc1Cl", "A": 15.45, "C": 15.35}
{"structure": "CN1CCN(C(=O)Cc2ccsc2)Cc2cccnc21", "C": 5.376}
{"structure": "CCOC(=O)CC1CCCCN1C(=O)CCc1cc(Cl)no1", "stereo": "stereo unspecified", "A": -31.63, "B": 34.88, "C": 11.45}
{"structure": "OC1(CNCc2csc(-c3ncccn3)n2)CCCNC1", "stereo": "stereo unspecified", "A": -0.474, "B": -3.6, "C": 8.657}
{"structure": "CCc1n[nH]c(C2CN(C(=O)CCc3cccs3)CCO2)n1", "stereo": "stereo unspecified", "A": -15.63, "C": 9.028}
{"structure": "c1cnc(-c2cnc(N3CCSCC3)nc2C2CC2)cn1", "A": -191.3, "C": 13.59}
{"structure": "Cc1csc([C@H]2C[C@@H]3CCN(C(=O)c4cnccn4)C[C@H]3O2)n1", "C": 11.35}
{"structure": "COCCC(=O)N1CCC2(COCc3cnc(-c4cccnc4)nc32)C1", "stereo": "stereo unspecified", "A": 39.01, "B": 2.75, "C": 8.269}
{"structure": "CN(CC(=O)NC1(C)CCS(=O)(=O)C1)Cc1ccc(F)c(F)c1", "stereo": "stereo unspecified", "A": -22.06, "B": -11.38, "C": -0.8671}
{"structure": "CC(C)c1nccn1C(C)C(=O)NCc1noc(Cc2cccs2)n1", "stereo": "stereo unspecified", "A": -22.09, "B": -18.74, "C": 6.03}
{"structure": "CC(C)n1nc2c(cc1=O)CN(c1ncnc3sccc13)CC2", "A": 6.088, "C": 14.25}
{"structure": "CCc1nc(CN2CCCC(NCc3cccc(C(N)=O)c3)C2)no1", "stereo": "stereo unspecified", "A": -3.839, "C": 10.06}
{"structure": "CCCN1CCCN(c2ccc(-n3ccc(C)n3)nn2)CC1", "A": 11.14, "B": 17.7, "C": 11.14}
{"structure": "O=C(NCc1cnn2cccnc12)C1CC2(CCNCC2)CN1", "stereo": "stereo unspecified", "A": 8.001, "B": -39.41, "C": 12.28}
{"structure": "Cc1ccccc1CC(=O)NS(=O)(=O)c1cccc2cnccc12", "A": -2.216, "B": -5.011, "C": 10.18}
{"structure": "CCc1ccc(CNC(=O)CCNc2ncccn2)s1", "A": -11.01, "B": -0.7213, "C": 10.89}
{"structure": "Cc1cccc(CN2C(=O)CO[C@@H]3CN(C4CCOCC4)C[C@H]32)c1", "C": 22.09}
{"structure": "Cc1ccc(F)cc1-n1c(CN(C)S(C)(=O)=O)n[nH]c1=O", "A": 8.038, "C": 14.88}
{"structure": "OCC1N(Cc2ccc(F)cc2)[C@H]2CC[C@]1(O)CC2", "stereo": "stereo partly specified", "C": 12.33}
{"structure": "COc1cccc(CCn2ccnc2-c2cn(C3CCNCC3)nn2)c1", "A": 3.834, "B": -34.94, "C": 5.079}
{"structure": "COC(=O)CNC(=O)C(C)Oc1ccccc1C(F)(F)F", "stereo": "stereo unspecified", "A": 0.1975, "B": -2.134, "C": 16.39}
{"structure": "Cc1ccc(N2CCCN(C(=O)c3cccc4c3ccn4C)CC2)nn1", "A": -19.13, "B": 13.79, "C": 9.441}
{"structure": "Cc1cnn(CC2CCCCN2C(=O)CCCc2nc(C)no2)c1", "stereo": "stereo unspecified", "A": -25.82, "B": 10.6, "C": 8.908}
{"structure": "CN(C1CCc2ccccc2C1)S(C)(=O)=O", "stereo": "stereo unspecified", "A": -0.2082, "C": 16.85}
{"structure": "c1csc(N2CCCN(c3ncnc4sccc34)CC2)n1", "A": 22.61, "B": 9.712, "C": 15.24}
{"structure": "O=C(c1c(F)cccc1F)N1CCC[C@@H]1Cn1c(=O)oc2ccccc21", "A": -0.419, "B": 34.56, "C": 11.05}
{"structure": "CC(C)(C)c1cc(NC(=O)CN(Cc2cccs2)Cc2cccs2)on1", "A": -5.244, "B": -7.776, "C": 8.635}
{"structure": "CC(Cn1cncn1)NC(=O)NCc1csc(N(C)C)n1", "stereo": "stereo unspecified", "A": 11.12, "B": 37.34, "C": 21.45}
{"structure": "CCCN1CCC(c2nc3ccc(-c4cccc(OC)c4)cn3n2)CC1.O=C(O)C(F)(F)F", "A": 44.83, "B": -6.045}
{"structure": "Cc1ccc(C(CNCc2ccncc2)N2CCOCC2)s1", "stereo": "stereo unspecified", "A": -13.76, "B": 11.85, "C": 4.762}
{"structure": "Cc1cc(C2CCC2)nc(N(C)Cc2cc(-c3ccccn3)no2)n1", "A": 21.45, "B": 16.82, "C": 8.397}

For reference, 4 entries once more:

{"structure": "OCC1N(Cc2ccc(F)cc2)[C@H]2CC[C@]1(O)CC2", "stereo": "stereo partly specified", "C": 12.33}
{"structure": "O=S1(=O)NCC2(CCCN(Cc3ccccn3)C2)Oc2ncccc21", "stereo": "stereo unspecified", "A": -18.75, "C": 0.5714}
{"structure": "CCCN1CCC(c2nc3ccc(-c4cccc(OC)c4)cn3n2)CC1.O=C(O)C(F)(F)F", "A": 44.83, "B": -6.045}
{"structure": "CCN1CCO[C@]2(CCC[C@H]2COCc2csc(C)n2)C1.O=C(O)C(F)(F)F.O=C(O)C(F)(F)F", "A": 13.05, "B": 6.08}

Measurements from “University of Dundee, Small-Polar-MMV Screening Library” (2021), ChEMBL document CHEMBL3988442.